According to paper PMC6521037:
These are yes or no findings as the source states them, for the method shown. In cells and extracts the contact can be indirect. Some entries that bind do so weakly or less than the wild type.

By UniProt entry, the sequences of proteins in these tests, tags left out.
UniProt Q9HAU4: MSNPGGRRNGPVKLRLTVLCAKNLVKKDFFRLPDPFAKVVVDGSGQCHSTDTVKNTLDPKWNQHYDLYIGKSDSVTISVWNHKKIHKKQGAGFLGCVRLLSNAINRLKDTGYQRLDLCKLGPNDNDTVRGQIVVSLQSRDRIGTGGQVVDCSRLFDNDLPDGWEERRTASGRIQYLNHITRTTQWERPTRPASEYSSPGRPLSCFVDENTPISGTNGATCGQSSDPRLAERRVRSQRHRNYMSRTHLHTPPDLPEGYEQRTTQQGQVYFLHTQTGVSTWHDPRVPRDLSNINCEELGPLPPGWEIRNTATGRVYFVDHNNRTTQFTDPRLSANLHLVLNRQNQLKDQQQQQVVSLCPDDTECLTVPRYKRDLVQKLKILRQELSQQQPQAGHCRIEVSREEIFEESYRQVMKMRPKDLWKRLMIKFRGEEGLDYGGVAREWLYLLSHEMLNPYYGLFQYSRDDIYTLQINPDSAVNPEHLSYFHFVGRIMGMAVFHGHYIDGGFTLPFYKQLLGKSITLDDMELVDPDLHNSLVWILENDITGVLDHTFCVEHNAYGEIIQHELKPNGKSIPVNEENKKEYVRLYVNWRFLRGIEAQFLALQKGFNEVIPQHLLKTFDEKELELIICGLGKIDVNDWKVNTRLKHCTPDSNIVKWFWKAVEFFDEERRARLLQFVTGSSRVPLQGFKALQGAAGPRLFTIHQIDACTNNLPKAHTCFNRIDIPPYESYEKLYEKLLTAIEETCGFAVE
UniProt P63104: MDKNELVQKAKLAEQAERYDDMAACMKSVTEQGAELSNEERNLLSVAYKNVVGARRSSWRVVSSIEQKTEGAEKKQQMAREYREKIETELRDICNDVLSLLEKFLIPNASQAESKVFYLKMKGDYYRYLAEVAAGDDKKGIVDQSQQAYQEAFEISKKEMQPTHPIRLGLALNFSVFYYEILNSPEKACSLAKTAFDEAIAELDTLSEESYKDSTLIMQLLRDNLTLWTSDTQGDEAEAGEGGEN
UniProt P62258: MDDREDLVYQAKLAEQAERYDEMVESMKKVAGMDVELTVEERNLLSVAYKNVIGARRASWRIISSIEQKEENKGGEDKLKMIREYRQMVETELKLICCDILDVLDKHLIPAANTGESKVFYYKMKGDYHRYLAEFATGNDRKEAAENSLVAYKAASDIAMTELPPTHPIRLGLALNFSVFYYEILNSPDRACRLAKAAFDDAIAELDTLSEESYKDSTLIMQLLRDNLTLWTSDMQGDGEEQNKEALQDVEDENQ
UniProt P31946: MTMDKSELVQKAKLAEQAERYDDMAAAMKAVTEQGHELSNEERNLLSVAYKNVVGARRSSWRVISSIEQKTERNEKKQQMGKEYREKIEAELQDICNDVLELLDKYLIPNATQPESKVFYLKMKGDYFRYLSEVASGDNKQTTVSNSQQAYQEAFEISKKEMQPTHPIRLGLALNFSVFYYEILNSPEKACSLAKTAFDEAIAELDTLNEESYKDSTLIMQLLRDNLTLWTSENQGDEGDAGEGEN

B1: 14-3-3 η (protein, UniProt Q04917 1-246)
chain: MGDREQLLQRARLAEQAERYDDMASAMKAVTELNEPLSNEDRNLLSVAYKNVVGARRSSWRVISSIEQKTMADGNEKKLEKVKAYREKIEKELETVCNDVLSLLDKFLIKNCNDFQYESKVFYLKMKGDYYRYLAEVASGEKKNSVVEASEAAYKEAFEISKEQMQPTHPIRLGLALNFSVFYYEIQNAPEQACLLAKQAFDDAIAELDTLNEDSYKDSTLIMQLLRDNLTLWTSDQQDEEAGEGN
B2: 14-3-3 theta (protein, UniProt P27348 1-245)
chain: MEKTELIQKAKLAEQAERYDDMATCMKAVTEQGAELSNEERNLLSVAYKNVVGGRRSAWRVISSIEQKTDTSDKKLQLIKDYREKVESELRSICTTVLELLDKYLIANATNPESKVFYLKMKGDYFRYLAEVACGDDRKQTIDNSQGAYQEAFDISKKEMQPTHPIRLGLALNFSVFYYEILNNPELACTLAKTAFDEAIAELDTLNEDSYKDSTLIMQLLRDNLTLWTSDSAGEECDAAEGAEN
B3: 14-3-3 gamma (protein, UniProt P61981 1-247)
chain: MVDREQLVQKARLAEQAERYDDMAAAMKNVTELNEPLSNEERNLLSVAYKNVVGARRSSWRVISSIEQKTSADGNEKKIEMVRAYREKIEKELEAVCQDVLSLLDNYLIKNCSETQYESKVFYLKMKGDYYRYLAEVATGEKRATVVESSEKAYSEAHEISKEHMQPTHPIRLGLALNYSVFYYEIQNAPEQACHLAKTAFDDAIAELDTLNEDSYKDSTLIMQLLRDNLTLWTSDQQDDDGGEGNN

target: SMURF2 (endogenous) (human (endogenous in MCF7 and MCF10A)) (UniProt Q9HAU4); experiment: co-IP; endogenous proteins in MCF7 and MCF10A lysates (1% NP-40 buffer, 500 μg); anti-SMURF2 antibody (sc-25511) or rabbit IgG control overnight at 4 °C, Protein G-Sepharose; blots with 14-3-3 isoform-specific antibodies

Row | binding | Molecule
1 | binds | 14-3-3 Zeta/delta (from UniProt P63104 1-245)
2 | binds | 14-3-3 epsilon (from UniProt P62258 1-255)
3 | binds | 14-3-3 β/α (from UniProt P31946 1-246)
4 | binds | B1
5 | binds | B2
6 | binds | B3
